Laboratory results published in US20250340902A1, “GENE THERAPY FOR BVES-RELATED DISORDERS” (OHIO STATE INNOVATION FOUNDATION, priority 2022, published 2025).
No constants are given. Whether binding was seen depends on the method and setting. In cells and extracts the contact can be indirect. Some results given as binding are weak or reduced against the parent protein; the word gives no strength. Sequences can lack the tags named with a protein.

Amino acid sequences for entries named in this document (tags omitted). A change or cut given only in a name is not applied to a line headed by its entry.
UniProt Q8NE79: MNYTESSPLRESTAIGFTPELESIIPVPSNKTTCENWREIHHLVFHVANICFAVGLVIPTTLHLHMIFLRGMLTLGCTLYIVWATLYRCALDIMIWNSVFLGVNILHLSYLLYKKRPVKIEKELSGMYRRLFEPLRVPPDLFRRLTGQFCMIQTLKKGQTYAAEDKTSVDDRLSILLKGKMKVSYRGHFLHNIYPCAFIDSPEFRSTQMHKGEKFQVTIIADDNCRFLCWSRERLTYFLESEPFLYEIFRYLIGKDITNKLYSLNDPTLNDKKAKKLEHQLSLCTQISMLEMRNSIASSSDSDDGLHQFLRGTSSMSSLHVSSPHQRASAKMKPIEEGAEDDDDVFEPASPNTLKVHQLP

Tests used:
[1] = biological target: T1, Flag-tagged ADCY9 (pCMV3-ADCY9-FLAG, Sino Biological #HG19950-CF) (UniProt O60503); test: co-IP from co-transfected COS-1 cells
T1 sequence (looked up): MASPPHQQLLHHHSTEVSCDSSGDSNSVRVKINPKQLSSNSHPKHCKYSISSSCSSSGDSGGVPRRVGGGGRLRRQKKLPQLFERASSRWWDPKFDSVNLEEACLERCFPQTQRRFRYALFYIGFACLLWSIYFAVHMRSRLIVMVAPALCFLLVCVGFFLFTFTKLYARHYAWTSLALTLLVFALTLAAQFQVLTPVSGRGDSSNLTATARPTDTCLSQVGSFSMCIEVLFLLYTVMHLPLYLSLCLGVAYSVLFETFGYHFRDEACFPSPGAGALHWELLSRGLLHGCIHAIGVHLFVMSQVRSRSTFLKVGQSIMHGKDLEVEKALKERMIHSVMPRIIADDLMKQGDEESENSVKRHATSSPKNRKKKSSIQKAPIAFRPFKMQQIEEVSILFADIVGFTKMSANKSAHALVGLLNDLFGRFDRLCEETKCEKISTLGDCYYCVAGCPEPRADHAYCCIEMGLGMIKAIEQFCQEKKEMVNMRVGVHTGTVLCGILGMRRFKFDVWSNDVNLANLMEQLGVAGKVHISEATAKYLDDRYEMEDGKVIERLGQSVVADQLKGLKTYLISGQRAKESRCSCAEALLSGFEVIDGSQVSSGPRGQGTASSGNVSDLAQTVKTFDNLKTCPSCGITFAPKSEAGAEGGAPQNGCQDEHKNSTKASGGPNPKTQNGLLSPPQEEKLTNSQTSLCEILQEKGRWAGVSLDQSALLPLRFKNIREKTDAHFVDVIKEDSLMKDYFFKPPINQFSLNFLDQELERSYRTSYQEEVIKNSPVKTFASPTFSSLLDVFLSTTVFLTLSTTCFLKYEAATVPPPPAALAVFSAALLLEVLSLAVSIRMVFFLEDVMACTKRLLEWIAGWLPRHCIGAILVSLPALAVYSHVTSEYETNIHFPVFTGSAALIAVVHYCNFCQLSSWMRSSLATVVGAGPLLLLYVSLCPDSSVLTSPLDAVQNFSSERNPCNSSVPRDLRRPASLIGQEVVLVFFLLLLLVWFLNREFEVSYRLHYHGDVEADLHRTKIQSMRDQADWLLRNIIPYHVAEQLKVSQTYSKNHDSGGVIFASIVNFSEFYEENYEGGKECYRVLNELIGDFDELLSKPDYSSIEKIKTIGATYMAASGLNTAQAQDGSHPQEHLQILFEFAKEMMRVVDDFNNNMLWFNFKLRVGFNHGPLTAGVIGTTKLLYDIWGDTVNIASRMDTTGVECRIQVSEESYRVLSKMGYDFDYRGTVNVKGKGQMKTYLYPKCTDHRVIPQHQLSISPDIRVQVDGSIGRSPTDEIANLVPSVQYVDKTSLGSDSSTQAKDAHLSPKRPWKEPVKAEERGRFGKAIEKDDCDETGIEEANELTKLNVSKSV

[2] = biological target: T1, Flag-tagged ADCY9 (pCMV3-ADCY9-FLAG, Sino Biological #HG19950-CF); test: co-IP with Flag antibody, Cos-1 lysates

binding [1]: binds
binding [2]: binds
Substance: human BVES fused with 3xHA tag (from UniProt Q8NE79 1-360)
